# Library screen at single concentrations

From ChEMBL document CHEMBL3988442, “University of Dundee, Small-Polar-MMV Screening Library” (2021).

Values are the deposited “Percent Effect”, in %.
How 0% and 100% were set is not recorded. Most values in the screen are low, and negative values occur.
The compounds are a random part of those screened.

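Whole-cell growth test on Mycobacterium tuberculosis, read after 4 days in a medium based on cholesterol and the lipid DPPC; the read-out is not stated. Concentration: 500 µM. Higher reads as more growth inhibition (inferred: compounds with an IC50 in retests scored well above the rest). Of about 18,000 compounds tested this way, about 900 (5%) reached 50% or more in at least one test.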

For Cc1cc(C)nc(N2CCOCC2C(N)=O)n1 (stereo not drawn) the result was 1.626%.
For Cc1ccc(-c2nc(CSc3nnc(N)[nH]3)no2)cc1 the result was 76.56%.
For Cc1nn(C)c(Cl)c1C(=O)N1CCN(C2CC2)CC1 the result was -10.86%.
For CC(C)(CN)CN1CCCC1 the result was -2.513%.
For CC(=O)Nc1ccc2ncccc2c1 the result was 23.32%.
For OCC1CCCN(c2ncccn2)C1 (stereo not drawn) the result was -1.935%.
For CC(C)(C)NCCNC(=O)CCc1ccccn1 the result was -22.29%.
For COc1ccc(OC)c(CN(C)CCN(C)C)c1 the result was -13.85%.
For Cn1cc(CCc2nc3c([nH]2)CCCNC3=O)cn1 the result was 8.967%.
For COc1cc(C)c(CNC2CC(=O)N(C)C2)cc1OC (stereo not drawn) the result was 10.06%.
For CCN(C)S(=O)(=O)N1CCC[C@H]1CO the result was -8.413%.
For Cc1ccnc(CC2CCCCN2)c1 (stereo not drawn) the result was 17.05%.
For Cc1cccn2cc(CN3CCOCS3(=O)=O)nc12 the result was -5.256%.
For COCCOCC(=O)N1CC(Oc2ccc(F)cc2)C1 the result was 32.47%.
For CC(=O)N1CCc2nn(C)c(=O)n2CC1 the result was 1.178%.
For CNC(=O)c1ccc(NC(=O)c2ccc(C)cc2)cc1 the result was 10.39%.
For CCC(=O)NCC(=O)NC(CC)c1nc(C)no1 (stereo not drawn) the result was -8.94%.
For CN(CCN1CCCC1=O)C(=O)c1ccc(C#N)cc1 the result was 2.83%.
For CCc1ncc(C2NCCc3[nH]cnc32)cn1 (stereo not drawn) the result was 11.82%.
For CCc1nsc(N2CCN(CC(O)COC)CC2)n1 (stereo not drawn) the result was -7.548%.
For CCC(NC(=O)C1CCOCC1)c1cc(C)ccn1 (stereo not drawn) the result was -1.941%.
For Brc1cncc(C2CNCCO2)c1 (stereo not drawn) the result was 11.17%.
For CN(C)c1ncccc1CNC(=O)CC1C=CCC1 (stereo not drawn) the result was 10.98%.
For COCCCn1ccc(NC(=O)NC(C)(C)C)n1 the result was -2.387%.
For CC(CN)CNC(=O)OC(C)(C)C (stereo not drawn) the result was -0.6249%.
For Cc1ccc(C(=O)N2CCOCC2(C)C)cc1F the result was 14.46%.
For O=C1NCC(C(=O)N2CCCCCC2)N1 (stereo not drawn) the result was 0.5846%.
For NC(=O)NC(=O)Cn1c(C(F)(F)F)nc2ccccc21 the result was -24.95%.
For CCc1nc(CN2CCCN(C(C)=O)CC2)cs1 the result was -1.813%.
For CC(c1ccccn1)N(C)CC(=O)NCC(F)(F)F (stereo not drawn) the result was -7.848%.